# Source: the supplement of paper PMC10849652
# Amino acid sequences for entries named in this document (tags omitted). A change or cut given only in a name is not applied to a line headed by its entry.
# UniProt Q5TFE4: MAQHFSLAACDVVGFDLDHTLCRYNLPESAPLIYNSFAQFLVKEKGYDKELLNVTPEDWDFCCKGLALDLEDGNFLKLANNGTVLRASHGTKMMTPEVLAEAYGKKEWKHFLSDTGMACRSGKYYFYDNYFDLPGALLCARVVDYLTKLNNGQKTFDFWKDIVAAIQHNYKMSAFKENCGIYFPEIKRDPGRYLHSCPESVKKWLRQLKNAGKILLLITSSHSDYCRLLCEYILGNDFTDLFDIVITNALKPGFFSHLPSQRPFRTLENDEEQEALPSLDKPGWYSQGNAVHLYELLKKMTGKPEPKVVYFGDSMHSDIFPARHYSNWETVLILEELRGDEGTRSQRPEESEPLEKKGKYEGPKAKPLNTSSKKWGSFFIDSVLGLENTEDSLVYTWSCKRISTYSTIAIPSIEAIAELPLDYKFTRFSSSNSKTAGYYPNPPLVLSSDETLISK
# UniProt O15460: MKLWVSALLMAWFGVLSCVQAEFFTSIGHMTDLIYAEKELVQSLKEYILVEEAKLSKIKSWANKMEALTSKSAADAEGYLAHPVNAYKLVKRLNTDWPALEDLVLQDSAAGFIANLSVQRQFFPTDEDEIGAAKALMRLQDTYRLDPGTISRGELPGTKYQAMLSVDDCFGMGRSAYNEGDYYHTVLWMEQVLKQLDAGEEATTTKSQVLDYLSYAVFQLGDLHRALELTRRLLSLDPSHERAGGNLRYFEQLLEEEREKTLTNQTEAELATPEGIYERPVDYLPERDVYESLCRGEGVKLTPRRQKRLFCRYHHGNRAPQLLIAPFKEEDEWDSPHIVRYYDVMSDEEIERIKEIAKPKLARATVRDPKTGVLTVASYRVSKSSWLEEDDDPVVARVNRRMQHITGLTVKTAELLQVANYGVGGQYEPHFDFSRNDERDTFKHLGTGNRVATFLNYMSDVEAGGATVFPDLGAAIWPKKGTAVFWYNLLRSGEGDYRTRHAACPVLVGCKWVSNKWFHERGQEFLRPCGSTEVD
# UniProt Q9H1E3: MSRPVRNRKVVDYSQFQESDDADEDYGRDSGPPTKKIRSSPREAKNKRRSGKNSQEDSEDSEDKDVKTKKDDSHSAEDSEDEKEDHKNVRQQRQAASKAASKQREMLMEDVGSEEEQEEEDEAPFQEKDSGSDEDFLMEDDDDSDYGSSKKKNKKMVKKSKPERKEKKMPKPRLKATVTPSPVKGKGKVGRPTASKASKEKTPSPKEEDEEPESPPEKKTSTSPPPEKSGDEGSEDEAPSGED
# UniProt P22059, whole entry, looked up: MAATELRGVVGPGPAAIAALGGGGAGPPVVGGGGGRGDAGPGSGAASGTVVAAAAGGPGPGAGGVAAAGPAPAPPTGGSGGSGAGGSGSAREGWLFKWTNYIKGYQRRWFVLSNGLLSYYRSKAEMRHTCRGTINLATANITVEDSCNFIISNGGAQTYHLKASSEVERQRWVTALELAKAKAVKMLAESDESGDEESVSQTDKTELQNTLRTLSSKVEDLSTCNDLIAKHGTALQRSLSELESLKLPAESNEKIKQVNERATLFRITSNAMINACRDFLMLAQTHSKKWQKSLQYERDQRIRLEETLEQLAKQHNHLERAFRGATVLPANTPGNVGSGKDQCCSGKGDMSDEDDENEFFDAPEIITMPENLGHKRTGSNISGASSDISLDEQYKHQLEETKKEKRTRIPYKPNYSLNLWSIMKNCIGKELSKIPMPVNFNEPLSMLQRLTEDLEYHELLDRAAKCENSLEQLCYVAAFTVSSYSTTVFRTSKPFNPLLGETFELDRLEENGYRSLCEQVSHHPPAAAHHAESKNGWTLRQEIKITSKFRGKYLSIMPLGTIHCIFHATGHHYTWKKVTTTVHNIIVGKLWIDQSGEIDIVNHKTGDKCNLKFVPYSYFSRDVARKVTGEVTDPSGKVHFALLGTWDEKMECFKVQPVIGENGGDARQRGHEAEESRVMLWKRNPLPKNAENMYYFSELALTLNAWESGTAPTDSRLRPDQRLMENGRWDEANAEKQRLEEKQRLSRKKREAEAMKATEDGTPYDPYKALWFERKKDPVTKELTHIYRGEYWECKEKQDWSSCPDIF
# UniProt Q99571: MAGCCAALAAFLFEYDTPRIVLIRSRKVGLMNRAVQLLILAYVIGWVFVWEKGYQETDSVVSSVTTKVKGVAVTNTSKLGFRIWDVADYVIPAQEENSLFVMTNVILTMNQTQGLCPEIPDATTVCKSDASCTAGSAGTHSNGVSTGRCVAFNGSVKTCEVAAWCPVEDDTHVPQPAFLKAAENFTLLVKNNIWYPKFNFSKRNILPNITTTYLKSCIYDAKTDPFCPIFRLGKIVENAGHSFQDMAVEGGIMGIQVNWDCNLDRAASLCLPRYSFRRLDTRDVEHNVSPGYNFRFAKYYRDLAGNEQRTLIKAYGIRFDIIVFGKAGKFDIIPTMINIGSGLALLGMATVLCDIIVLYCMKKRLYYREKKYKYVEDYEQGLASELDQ
# UniProt Q8WV74: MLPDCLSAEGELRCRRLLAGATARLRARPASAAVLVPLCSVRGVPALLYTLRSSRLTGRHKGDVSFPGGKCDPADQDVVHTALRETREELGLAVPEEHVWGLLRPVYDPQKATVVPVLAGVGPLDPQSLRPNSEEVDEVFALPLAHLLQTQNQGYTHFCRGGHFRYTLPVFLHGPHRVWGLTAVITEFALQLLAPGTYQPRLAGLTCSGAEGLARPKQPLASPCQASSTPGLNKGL
# UniProt O60890: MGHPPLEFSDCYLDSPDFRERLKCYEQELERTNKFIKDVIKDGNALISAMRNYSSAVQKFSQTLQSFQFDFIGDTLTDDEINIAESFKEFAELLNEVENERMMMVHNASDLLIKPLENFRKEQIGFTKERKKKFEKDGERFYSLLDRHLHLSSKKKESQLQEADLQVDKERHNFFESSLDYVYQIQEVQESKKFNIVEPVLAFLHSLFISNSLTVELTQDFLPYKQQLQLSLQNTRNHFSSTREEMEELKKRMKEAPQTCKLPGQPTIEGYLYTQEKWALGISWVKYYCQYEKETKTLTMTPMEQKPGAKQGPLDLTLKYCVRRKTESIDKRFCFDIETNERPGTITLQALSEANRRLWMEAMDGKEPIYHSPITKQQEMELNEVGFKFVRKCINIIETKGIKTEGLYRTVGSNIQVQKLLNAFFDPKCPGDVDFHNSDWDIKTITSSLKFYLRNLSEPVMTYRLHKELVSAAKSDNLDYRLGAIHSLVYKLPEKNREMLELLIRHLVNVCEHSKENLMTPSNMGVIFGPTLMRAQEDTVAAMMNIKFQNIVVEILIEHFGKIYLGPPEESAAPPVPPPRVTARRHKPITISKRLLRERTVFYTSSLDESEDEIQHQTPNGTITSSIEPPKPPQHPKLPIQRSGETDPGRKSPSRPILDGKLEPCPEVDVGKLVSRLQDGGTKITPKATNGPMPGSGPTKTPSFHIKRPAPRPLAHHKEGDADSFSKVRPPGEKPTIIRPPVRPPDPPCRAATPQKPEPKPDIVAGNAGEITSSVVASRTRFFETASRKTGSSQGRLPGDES
# Some of the results follow.
# Experiments:
# Experiment in all cases: log2 fold change, soluble protein after heating vs DMSO (PISA); higher = thermal stabilisation; K562 cells, 10 uM, 30 min; active = over 0.2 and 3.5 SD of the protein, either way, in both replicates (recomputed)
# [1] = compound: COC1=CC=C(C=C1)CN2C=CC3=C2C=C(C=C3)C(=O)NO
# Procedure, shortened: (§1)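 Values are thermal stability changes relative to control samples and are taken from duplicates. They are stated as log2 fold changes. Before quantification by TMTpro 16plex LC-MS/MS with equalised channel sums, K562 cells at 2×10^6 cells/mL were treated with 10 μM compound for 30 min, heated in aliquots for 3 min across 48°C-58°C, pooled, extracted in PBS with 0.5% NP-40 at 4°C, and centrifuged at 21,000xg for 90 min to give the soluble supernatant.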
# filanesib = compound: CON(C)C(=O)N1N=C(c2cc(F)ccc2F)S[C@@]1(CCCN)c1ccccc1 [filanesib]
# Procedure, shortened: as §1
# zotarolimus = compound: CO[C@H]1C[C@@H]2CC[C@@H](C)[C@@](O)(O2)C(=O)C(=O)N2CCCC[C@H]2C(=O)O[C@H]([C@H](C)C[C@@H]2CC[C@H](n3cnnn3)[C@H](OC)C2)CC(=O)[C@H](C)/C=C(\C)[C@@H](O)[C@@H](OC)C(=O)[C@H](C)C[C@H](C)/C=C/C=C/C=C/1C [zotarolimus]
# Procedure, shortened: as §1
# idasanutlin = compound: COc1cc(C(=O)O)ccc1NC(=O)[C@@H]1N[C@@H](CC(C)(C)C)[C@](C#N)(c2ccc(Cl)cc2F)[C@H]1c1cccc(Cl)c1F [idasanutlin]
# Procedure, shortened: as §1
# alisertib = compound: COc1cc(Nc2ncc3c(n2)-c2ccc(Cl)cc2C(c2c(F)cccc2OC)=NC3)ccc1C(=O)O [alisertib]
# Procedure, shortened: as §1
# [2] = compound: COc1cc2nc(-c3cc(F)ccc3O)nc(N[C@@H]3CNC[C@H]3C(C)(C)O)c2cc1OC
# Procedure, shortened: as §1
# gefitinib = compound: COc1cc2ncnc(Nc3ccc(F)c(Cl)c3)c2cc1OCCCN1CCOCC1 [gefitinib]
# Procedure, shortened: as §1
# [3] = compound: COc1cccc2cc(-c3nc([C@H]4CC[C@H](C(=O)O)CC4)n4ncnc(N)c34)[nH]c12
# Procedure, shortened: as §1
# lapatinib = compound: CS(=O)(=O)CCNCc1ccc(-c2ccc3ncnc(Nc4ccc(OCc5cccc(F)c5)c(Cl)c4)c3c2)o1 [lapatinib]
# Procedure, shortened: as §1
# pictilisib = compound: CS(=O)(=O)N1CCN(Cc2cc3nc(-c4cccc5[nH]ncc45)nc(N4CCOCC4)c3s2)CC1 [pictilisib]
# Procedure, shortened: as §1
# [4] = compound: CS(=O)(=O)c1ccc(-c2cnc(N)c(C(=O)Nc3ccccc3)n2)cc1
# Procedure, shortened: as §1
# crizotinib = compound: C[C@@H](Oc1cc(-c2cnn(C3CCNCC3)c2)cnc1N)c1c(Cl)ccc(F)c1Cl [crizotinib]
# Procedure, shortened: as §1
# [5] = compound: C[C@@H]1COCCN1C2=NC(=NC(=C2)C3(CC3)S(=O)(=O)C)C4=C5C=CNC5=CC=C4
# Procedure, shortened: as §1
# [6] = compound: C[C@H](C1=CC=C(C=C1)C(=O)NC2=C3C=CNC3=NC=C2)N
# Procedure, shortened: as §1
# gandotinib = compound: Cc1cc(Nc2cc(CN3CCOCC3)c3nc(C)c(Cc4ccc(Cl)cc4F)n3n2)n[nH]1 [gandotinib]
# Procedure, shortened: as §1
# [7] = compound: Cc1cc(SCc2sc(-c3ccc(C(F)(F)F)cc3)nc2C)ccc1OCC(=O)O
# Procedure, shortened: as §1
# doramapimod = compound: Cc1ccc(-n2nc(C(C)(C)C)cc2NC(=O)Nc2ccc(OCCN3CCOCC3)c3ccccc23)cc1 [doramapimod]
# Procedure, shortened: as §1
# ispinesib = compound: Cc1ccc(C(=O)N(CCCN)[C@@H](c2nc3cc(Cl)ccc3c(=O)n2Cc2ccccc2)C(C)C)cc1 [ispinesib]
# Procedure, shortened: as §1
# duvelisib = compound: C[C@H](Nc1ncnc2nc[nH]c12)c1cc2cccc(Cl)c2c(=O)n1-c1ccccc1 [duvelisib]
# Procedure, shortened: as §1
# tozasertib = compound: Cc1cc(Nc2cc(N3CCN(C)CC3)nc(Sc3ccc(NC(=O)C4CC4)cc3)n2)n[nH]1 [tozasertib]
# Procedure, shortened: as §1
Target,log2 fold change [1],log2 fold change (filanesib),log2 fold change (zotarolimus),log2 fold change (idasanutlin),log2 fold change (alisertib),log2 fold change [2],log2 fold change (gefitinib),log2 fold change [3],log2 fold change (lapatinib),log2 fold change (pictilisib),log2 fold change [4],log2 fold change (crizotinib),log2 fold change [5],log2 fold change [6],log2 fold change (gandotinib),log2 fold change [7],log2 fold change (doramapimod),log2 fold change (ispinesib),log2 fold change (duvelisib),log2 fold change (tozasertib)
NT5DC1 (UniProt Q5TFE4),inactive: 0.016,inactive: -0.067,inactive: 0.019,inactive: -0.122,inactive: -0.015,inactive: 0.04,inactive: 0.018,inactive: 0.02,inactive: 0.074,inactive: 0.097,inactive: 0.045,inactive: 0.071,inactive: 0.046,inactive: -0.052,inactive: 0.019,inactive: -0.038,inactive: -0.018,inactive: 0.037,,
P4HA2 (UniProt O15460),inactive: -0.109,inactive: 0.078,inactive: 0.026,,inactive: 0.011,inactive: -0.139,inactive: 0.006,inactive: -0.11,inactive: 0.075,inactive: -0.003,inactive: 0.079,inactive: 0.023,active: -0.627,inactive: 0.178,inactive: 0.021,inactive: 0.053,inactive: 0.069,inactive: -0.088,,
NUCKS1 (UniProt Q9H1E3),inactive: -0.035,inactive: 0.051,inactive: -0.031,inactive: -0.011,inactive: -0.071,inactive: 0.182,inactive: -0.001,inactive: 0.02,inactive: -0.064,inactive: -0.011,inactive: -0.147,active: 0.274,inactive: -0.133,inactive: 0.029,inactive: 0.001,inactive: -0.089,inactive: -0.03,inactive: 0.168,,
NUDT5 (UniProt C9JYY9),inactive: -0.224,inactive: 0.033,inactive: -0.004,inactive: 0.079,,,,,,inactive: 0.31,inactive: 0.043,inactive: -0.013,inactive: -0.071,inactive: 0.225,inactive: 0.046,inactive: -0.057,inactive: -0.138,,inactive: -0.01,inactive: 0.001
OSBP (UniProt P22059),inactive: -0.018,inactive: 0.009,inactive: 0.007,inactive: -0.019,inactive: -0.046,inactive: 0.086,inactive: 0.019,inactive: -0.009,inactive: 0,inactive: 0.004,inactive: -0.015,inactive: 0.057,inactive: 0.025,inactive: -0.043,inactive: -0.025,inactive: 0.016,inactive: -0.028,active: 0.216,,
P2RX4 isoform 2 (UniProt Q99571),inactive: 0.092,inactive: 0.066,inactive: -0.044,inactive: -0.087,inactive: 0.038,inactive: -0.081,inactive: -0.095,inactive: 0.102,inactive: 0.091,,inactive: -0.027,inactive: -0.217,inactive: 0.008,inactive: 0,,inactive: 0.033,inactive: 0.043,inactive: -0.125,inactive: 0.242,inactive: -0.106
NUDT1 (UniProt P36639),inactive: 0.043,inactive: -0.06,inactive: -0.068,inactive: -0.169,inactive: -0.017,inactive: 0.11,inactive: 0.354,inactive: -0.046,inactive: -0.016,inactive: -0.01,inactive: 0.185,,inactive: 0.08,inactive: 0.107,inactive: -0.167,inactive: 0.017,inactive: -0.113,inactive: 0.012,,
NUDT8 (UniProt Q8WV74),inactive: 0.011,inactive: -0.21,inactive: -0.008,,inactive: 0.12,inactive: 0.017,inactive: 0.013,inactive: 0.02,inactive: -0.037,,inactive: 0.072,inactive: 0.061,,inactive: -0.069,,inactive: 0.028,inactive: -0.029,inactive: -0.076,inactive: -0.203,inactive: -0.289
OPHN1 (UniProt O60890),inactive: -0.261,inactive: -0.004,inactive: -0.049,inactive: -0.015,inactive: -0.036,,inactive: -0.002,inactive: 0.04,,inactive: 0.242,inactive: 0.011,inactive: -0.06,inactive: 0.107,inactive: 0.14,active: -0.636,inactive: -0.21,inactive: 0.26,inactive: 0.018,,
